For one substance, binding results are on record in publication PMC4014424.

For this assay, the target named is T1, biotin-tagged TR4 (orphan nuclear receptor TR4, NR2C2) (UniProt P49117).
T1 sequence (chain, biotin on the biotin recognition sequence (by birA biotin ligase)): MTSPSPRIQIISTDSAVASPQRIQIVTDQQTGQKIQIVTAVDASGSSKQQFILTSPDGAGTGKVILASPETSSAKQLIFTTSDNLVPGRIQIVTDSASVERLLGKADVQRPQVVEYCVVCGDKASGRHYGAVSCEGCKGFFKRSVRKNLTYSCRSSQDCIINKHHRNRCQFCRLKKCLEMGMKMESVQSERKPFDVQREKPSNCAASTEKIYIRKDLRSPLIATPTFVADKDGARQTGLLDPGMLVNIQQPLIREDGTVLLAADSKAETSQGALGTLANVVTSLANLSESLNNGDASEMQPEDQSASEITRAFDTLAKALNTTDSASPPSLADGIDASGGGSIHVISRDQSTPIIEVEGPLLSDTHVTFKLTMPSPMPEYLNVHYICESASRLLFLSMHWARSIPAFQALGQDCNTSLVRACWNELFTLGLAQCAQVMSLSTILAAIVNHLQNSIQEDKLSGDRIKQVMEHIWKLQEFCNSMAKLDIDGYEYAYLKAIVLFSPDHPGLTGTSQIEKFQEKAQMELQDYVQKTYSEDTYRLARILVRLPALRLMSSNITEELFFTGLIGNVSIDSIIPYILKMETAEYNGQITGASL
Kind of assay: pull-down; streptavidin beads incubated overnight at 4°C with nuclear extracts of MEL cells expressing birA with or without (control) biotin-tagged TR4; washed with PBS plus 0.5% Tween20 and 1X Laemmli sample buffer; bound proteins immunoblotted. For orientation: Immunoblotting shows a protein as a band on a membrane.

These are yes or no findings as the source states them, for the method shown. In cells and extracts the contact can be indirect. Binding can be weak; no strength is given. Sequences can lack the tags named with a protein.

Consider RXR (mouse (endogenous in MEL)), for which the binding result is listed as “binds weakly”.
